Results of single-concentration screens

Measurements from “University of Dundee, Small-Polar-MMV Screening Library” (2021), ChEMBL document CHEMBL3988442.

Each number is a percent effect as filed.
The controls that fix the scale are not given in the record; negative values are as filed.
The compounds are a random part of those screened.
Two or more numbers in one place are separate tests of the same structure; such repeats can differ widely.

Mtb cholesterol medium: 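Growth of Mycobacterium tuberculosis over 4 days (cholesterol / DPPC medium with tyloxapol); the read-out is not stated. Compounds at 50 µM. Direction is inferred from retests: higher values go with more growth inhibition. Of about 69,000 compounds tested this way, about 370 (0.54%) reached 50% or more in at least one test.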
Mtb glucose medium: 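Phenotypic screen: M. tuberculosis growth, glucose 7H9 medium, 3 days; the read-out is not stated. Compounds at 50 µM. Direction is inferred from retests: higher values go with more growth inhibition. Of about 69,000 compounds tested this way, about 760 (1.1%) reached 50% or more in at least one test.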

c1cnnc(N2CCCC2CNc2ncnc3ccsc23)c1 (configuration not stated) gave Mtb cholesterol medium: 8.672%; Mtb glucose medium: 33.22%. CC(C)c1noc(CN(Cc2ccccc2F)C2CC2)n1 read Mtb cholesterol medium: 0.2376%; Mtb glucose medium: -0.2504%. Result for Fc1ccc(C2CN(CCc3ccncc3)CCO2)cc1 (configuration not stated) was Mtb cholesterol medium: -25.5%; Mtb glucose medium: -20.25%. For Cc1cc(NC(=O)CNC2CCc3ncnn3C2)no1 (configuration not stated) the result was Mtb cholesterol medium: 5.258%; Mtb glucose medium: -1.179% and -24.48%. C[C@@H](O)CNC(=O)CCc1nc2cccnc2[nH]1 read Mtb cholesterol medium: -9.682%; Mtb glucose medium: 3.553%. Result for NC(=O)CN(Cc1ccc(Br)cc1)C(=O)c1cnccn1 was Mtb cholesterol medium: 10.3%; Mtb glucose medium: 21.28%.

With O=C(O)C(F)(F)F.[H][C@@]12CCCO[C@]1([H])[C@@H](Oc1ccccn1)CN2C(=O)N(C)C the screen gave Mtb cholesterol medium: -3.313%; Mtb glucose medium: -1.962%. Result for Fc1ccc(CNCCn2cccn2)cc1F was Mtb cholesterol medium: -24.36%; Mtb glucose medium: -28.07% and -4.545%. COC(=O)c1ccc(S(=O)(=O)N2CCC(Oc3cccnn3)CC2)cc1 read Mtb cholesterol medium: 10.08%; Mtb glucose medium: 13.41%. CNC(=O)CN(C)c1nc(-c2ccc(C(N)=O)cc2)nc2c1CCNC2 read Mtb cholesterol medium: -9.962%; Mtb glucose medium: -30.07% and -8.314%. For CNC(=O)Cc1ccc(NC(=O)NCc2ncc(C)s2)cc1 the result was Mtb cholesterol medium: -11.59%; Mtb glucose medium: -19.62% and -6.295%. With Cc1cc(C)nc(C2CCCN2S(=O)(=O)N2CCOCC2)n1 (configuration not stated) the screen gave Mtb cholesterol medium: 4.385%; Mtb glucose medium: 8.061%.

Result for Nc1nc(N)c2c(n1)OC1(CCN(C(=O)CC3CCCCN3)CC1)C2 (configuration not stated) was Mtb cholesterol medium: 4.888% and 0.9309%; Mtb glucose medium: -35.07%. With CS(=O)(=O)CC(=O)N(CCN1CCOCC1)Cc1ccco1 the screen gave Mtb cholesterol medium: 7.139% and -4.496%; Mtb glucose medium: -19.58%. With COc1ccc(CN(CCC#N)CCN2CCOCC2)c(OC)c1 the screen gave Mtb cholesterol medium: 1.233%; Mtb glucose medium: -23.65%. Result for CCC[C@@H]1CN(Cc2c[nH]nc2-c2ccc(F)cc2)C[C@H]1NS(C)(=O)=O was Mtb cholesterol medium: -2.091%; Mtb glucose medium: 21.74%. Cc1ccc(C2CN(C(=O)c3ccn(C)c(=O)c3)CCO2)nc1 (configuration not stated) gave Mtb cholesterol medium: -17.45%; Mtb glucose medium: 15.89%. For Cc1nc(-c2ccccc2)sc1CSCCC(N)=O the result was Mtb cholesterol medium: 21.12%; Mtb glucose medium: 25.55%.

Cc1cccc(CNCc2c(C(C)C)nn(C)c2N2CCOCC2)n1 gave Mtb cholesterol medium: 4.945%; Mtb glucose medium: -5.647% and -11.1%. COc1ccc(S(=O)(=O)NC(=O)c2c(C)noc2C(C)C)cc1OC gave Mtb cholesterol medium: -6.769%; Mtb glucose medium: -25.49%. CC1CCN(c2ccc3c(-c4ncc(C(=O)O)s4)noc3c2)CC1 gave Mtb cholesterol medium: 9.548%; Mtb glucose medium: 9.898% and 15.04%. CCn1nc(C)c(S(=O)(=O)N(C)c2ccc(Cl)cn2)c1C read Mtb cholesterol medium: -16.79%; Mtb glucose medium: -14.38%. Result for FC(F)(F)C1CN(Cc2cccc(OCc3ccccn3)c2)CCO1 (configuration not stated) was Mtb cholesterol medium: -17.83%; Mtb glucose medium: -23.84%. Result for Cn1cccc1C(=O)N1CCCC(Cn2cc(CO)nn2)C1 (configuration not stated) was Mtb cholesterol medium: 9.114%; Mtb glucose medium: -38%.

CCc1cc(N2CCC(NC(=O)CCC3CCCO3)CC2)ncn1 (configuration not stated) gave Mtb cholesterol medium: -29.76%; Mtb glucose medium: -5.976%. With COc1ccc(N2CCN(C(=O)C3CN(C)C(=O)N3)CC2(C)C)cc1 (configuration not stated) the screen gave Mtb cholesterol medium: -8.04% and -8.413%; Mtb glucose medium: 6.423%. Result for OCCOCc1n[nH]c2c1CN(Cc1cccs1)C2 was Mtb cholesterol medium: 15.19%; Mtb glucose medium: -5.759% and -1.637%. O=C(O)C(F)(F)F.[H][C@@]12CN(C(=O)c3ccoc3C)C[C@@]1([H])N(Cc1cccnc1)C(=O)CO2 read Mtb cholesterol medium: -11.82% and 1.397%; Mtb glucose medium: -12.16% and -3.08%. With CC1(c2[nH]ncc2C(N)=O)CCN(S(=O)(=O)c2ccccc2)CC1 the screen gave Mtb cholesterol medium: 6.499% and 10.4%; Mtb glucose medium: 26.5%. With O=C(CN1CCN(C(=O)Cc2ccc3c(c2)OCCO3)CC1)NC1CC1 the screen gave Mtb cholesterol medium: -22.17%; Mtb glucose medium: -25.58%.

O=C(c1ccnnc1)N1CCCn2nnc(COCC3CC3)c2C1 read Mtb cholesterol medium: -19.33%; Mtb glucose medium: -4.29% and -17.04%. For CN(C)C(=O)NC1COC2(CCN(S(=O)(=O)c3ccccc3)CC2)C1 (configuration not stated) the result was Mtb cholesterol medium: -31.1%; Mtb glucose medium: 19.66%. Result for CC(=O)N1CCC2(CC1)CCN(C(=O)c1cccc(C(F)(F)F)c1)C2 was Mtb cholesterol medium: 5.956%; Mtb glucose medium: -10.45%. CNC(=O)CCNC(=O)c1cc(C)n(-c2cccc(OC)c2)c1C gave Mtb cholesterol medium: 5.292%; Mtb glucose medium: -24.84%. For COCC(=O)N1CCC(c2cc(N(C)C)cc(C)n2)CC1 the result was Mtb cholesterol medium: -19.14%; Mtb glucose medium: -22.02%. CO[C@@H]1CO[C@@]2(CCCN(Cc3nc(C)cs3)C2)C1.O=C(O)C(F)(F)F gave Mtb cholesterol medium: -2.579%; Mtb glucose medium: -7.538%.

CC(C)N(C)CCCNC(=O)c1cnn(C(C)C)c1C(F)(F)F read Mtb cholesterol medium: -7.137%; Mtb glucose medium: 4.908% and 12.03%. COc1cc(-c2cc(OC)c(OC)c(OC)c2)ncn1 read Mtb cholesterol medium: -11.48%; Mtb glucose medium: 15.16%. CC(C)c1nn(C)c(Cl)c1CNCC(O)c1cccc(F)c1.Cl (configuration not stated) read Mtb cholesterol medium: -7.92%; Mtb glucose medium: 4.914%. With [H][C@@]12CCCO[C@]1([H])[C@H](N(C)Cc1cccnc1)CN2C(=O)c1ccco1 the screen gave Mtb cholesterol medium: -0.6832%; Mtb glucose medium: 16.42%. Cc1ccc([C@@H]2CN(C(=O)c3ccon3)C[C@H]2NC(=O)C2CC2)cc1 read Mtb cholesterol medium: -32.45%; Mtb glucose medium: 1.925%. Result for CCOCCn1nc(C)cc1C(=O)N1CCOCC(CO)C1 (configuration not stated) was Mtb cholesterol medium: 35.08%; Mtb glucose medium: -8.309%.

With CCn1ccnc1CN1CCOC(CNc2cccnn2)C1 (configuration not stated) the screen gave Mtb cholesterol medium: -1.579%; Mtb glucose medium: -1.002%. With Cc1ccc(C(=O)Nc2ccccc2F)n1C the screen gave Mtb cholesterol medium: -7.214%; Mtb glucose medium: 4.874%. COCCCC(=O)N1CC(=O)Nc2cc(Br)ccc21 read Mtb cholesterol medium: 13.11%; Mtb glucose medium: 23.63%. COc1ccc(C(O)CNC(=O)NCCc2csc(C)n2)cc1 (configuration not stated) gave Mtb cholesterol medium: 3.061%; Mtb glucose medium: -29.45% and -8.292%.

4 of the entries, repeated:

| compound | Mtb cholesterol medium | Mtb glucose medium |
|---|---|---|
| `O=C(O)C(F)(F)F.[H][C@@]12CCCO[C@]1([H])[C@@H](Oc1ccccn1)CN2C(=O)N(C)C` | -3.313 | -1.962 |
| `FC(F)(F)C1CN(Cc2cccc(OCc3ccccn3)c2)CCO1` (configuration not stated) | -17.83 | -23.84 |
| `O=C(O)C(F)(F)F.[H][C@@]12CN(C(=O)c3ccoc3C)C[C@@]1([H])N(Cc1cccnc1)C(=O)CO2` | -11.82 and 1.397 | -12.16 and -3.08 |
| `Cc1ccc([C@@H]2CN(C(=O)c3ccon3)C[C@H]2NC(=O)C2CC2)cc1` | -32.45 | 1.925 |